Measurements as given in publication PMC3492142.
No constants are given. Whether binding was seen depends on the method and setting. In cells and extracts the contact can be indirect. Some binding calls cover weakened binding; strength is not graded here.

Protein sequences, listed by entry. Tags and fused reporters are not part of them. Lines headed by an entry give the natural chain unless they say otherwise; changes in a name come on top. Chains listed by the source or under a name are the forms on record and can include a tag or linker.
UniProt P08134: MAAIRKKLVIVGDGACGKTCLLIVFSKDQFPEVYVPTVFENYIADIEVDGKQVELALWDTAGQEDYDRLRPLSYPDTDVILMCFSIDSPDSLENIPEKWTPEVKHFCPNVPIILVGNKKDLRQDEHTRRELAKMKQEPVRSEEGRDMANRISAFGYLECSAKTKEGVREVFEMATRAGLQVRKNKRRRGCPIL
constitutively active form of RhoC (RhoC-V14) (P08134, form named): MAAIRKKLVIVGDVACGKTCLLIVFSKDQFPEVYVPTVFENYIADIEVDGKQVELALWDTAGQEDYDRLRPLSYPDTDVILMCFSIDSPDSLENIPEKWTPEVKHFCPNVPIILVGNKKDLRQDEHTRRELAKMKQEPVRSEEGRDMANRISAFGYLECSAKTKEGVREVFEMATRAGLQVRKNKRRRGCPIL
UniProt P46940: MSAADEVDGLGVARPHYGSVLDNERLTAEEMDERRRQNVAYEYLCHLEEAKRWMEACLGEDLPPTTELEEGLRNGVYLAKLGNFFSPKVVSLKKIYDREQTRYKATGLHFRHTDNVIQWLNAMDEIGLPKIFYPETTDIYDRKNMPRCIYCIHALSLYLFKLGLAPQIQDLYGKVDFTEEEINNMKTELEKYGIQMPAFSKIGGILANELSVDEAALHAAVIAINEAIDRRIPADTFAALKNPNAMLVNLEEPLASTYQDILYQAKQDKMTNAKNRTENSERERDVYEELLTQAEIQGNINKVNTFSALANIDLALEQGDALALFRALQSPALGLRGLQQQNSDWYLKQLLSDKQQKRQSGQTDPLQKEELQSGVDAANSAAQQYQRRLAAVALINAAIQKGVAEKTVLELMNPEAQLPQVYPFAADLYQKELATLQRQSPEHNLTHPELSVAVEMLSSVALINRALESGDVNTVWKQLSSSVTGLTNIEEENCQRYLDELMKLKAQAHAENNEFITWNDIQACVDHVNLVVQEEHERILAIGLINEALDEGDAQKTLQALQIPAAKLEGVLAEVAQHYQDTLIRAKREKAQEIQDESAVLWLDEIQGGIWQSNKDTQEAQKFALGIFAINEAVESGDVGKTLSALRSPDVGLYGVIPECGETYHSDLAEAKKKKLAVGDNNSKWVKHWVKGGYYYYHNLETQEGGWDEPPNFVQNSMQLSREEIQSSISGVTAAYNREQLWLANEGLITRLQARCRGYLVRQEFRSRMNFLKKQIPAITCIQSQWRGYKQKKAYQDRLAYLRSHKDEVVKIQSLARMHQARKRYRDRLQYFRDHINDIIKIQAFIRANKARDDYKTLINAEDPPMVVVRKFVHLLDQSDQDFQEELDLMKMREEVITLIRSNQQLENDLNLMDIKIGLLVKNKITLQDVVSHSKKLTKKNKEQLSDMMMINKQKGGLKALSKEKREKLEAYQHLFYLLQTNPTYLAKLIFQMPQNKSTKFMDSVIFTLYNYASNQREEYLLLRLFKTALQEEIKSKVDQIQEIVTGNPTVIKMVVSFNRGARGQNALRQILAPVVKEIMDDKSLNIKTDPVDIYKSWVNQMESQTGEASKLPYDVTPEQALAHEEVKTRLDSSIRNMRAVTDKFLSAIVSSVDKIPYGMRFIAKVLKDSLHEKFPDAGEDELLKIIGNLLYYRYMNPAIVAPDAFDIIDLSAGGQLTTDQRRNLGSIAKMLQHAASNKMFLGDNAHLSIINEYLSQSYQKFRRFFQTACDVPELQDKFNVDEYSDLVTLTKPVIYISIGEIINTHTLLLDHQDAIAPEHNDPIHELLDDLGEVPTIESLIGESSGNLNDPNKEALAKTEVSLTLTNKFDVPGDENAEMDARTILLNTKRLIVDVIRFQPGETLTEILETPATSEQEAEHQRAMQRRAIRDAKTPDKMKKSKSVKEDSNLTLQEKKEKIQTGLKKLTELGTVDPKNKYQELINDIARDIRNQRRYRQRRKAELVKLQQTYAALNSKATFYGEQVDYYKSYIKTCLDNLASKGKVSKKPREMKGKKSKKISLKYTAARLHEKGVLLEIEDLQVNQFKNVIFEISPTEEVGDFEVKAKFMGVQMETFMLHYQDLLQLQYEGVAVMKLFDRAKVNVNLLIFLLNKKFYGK

Molecular target: constitutively active form of RhoC (RhoC-V14) (UniProt P08134)
Test: co-IP; BGC-823 and COS-7 cells co-infected with Ad-IQGAP1 or Ad-IQGAP1-C and Ad-RhoC-V14 for 48 h; lysed with RIPA buffer; immunoprecipitation with anti-RhoC or anti-IQGAP1 antibody or isotype-matched IgG; Western blot with anti-IQGAP1 or anti-RhoC antibody

binding: binds
Substance: full length IQGAP1 (IQ-domain GTPase-activating protein 1) (from UniProt P46940 1-1657)
